Data as given in patent US20220403040A1.
Where a chain is given by its changes, count along the chain named. These are yes or no findings as the source states them, for the method shown. Some entries that bind do so weakly or less than the wild type.

Amino acid sequences for entries named in this document (tags omitted). A change or cut given only in a name is not applied to a line headed by its entry. Residues count along the entry.
UniProt A9YYE7, residues 24-186: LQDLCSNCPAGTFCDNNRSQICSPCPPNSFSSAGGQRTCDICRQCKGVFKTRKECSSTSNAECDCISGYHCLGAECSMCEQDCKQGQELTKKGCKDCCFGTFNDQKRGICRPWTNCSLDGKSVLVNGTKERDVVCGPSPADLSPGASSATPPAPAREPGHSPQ

B1: Clone 3 Fab (affinity-matured humanized 29.39) (Fab, V domains shown)
VH: QVQLVQSGAEVKKPGASVKVSCKASGFNPKDTYIHWVRQAPGQGLEWMGRIDPANGFTEYAQKFQGRVTMTRDTSTSTVYMELSSLRSEDTAVYYCTTGNLHYALMDYWGQGTSVTVSS
VL: DIQMTQSPSSVSASVGDRVTITCKASQAINTYLSWYQQKPGKAPKLLIYRANRMVDGVPSRFSGSGSGTDFTLTISSLQHEDFATYYCLQSDDFPYTFGGGTKLEIKR
B2: Clone 9 Fab (affinity-matured humanized 29.39) (Fab, V domains shown)
VH: B1 VH with P29L, R50K, F57N
VL: B1 VL with N30A, V55Y, H80P, S91F
B3: Clone 23 Fab (affinity-matured humanized 29.39) (Fab, V domains shown)
VH: B1 VH with P29I, R50K, F57Q
VL: B1 VL with D56G, H80P, S91Y, D92R
B4: Clone 25 Fab (affinity-matured humanized 29.39) (Fab, V domains shown)
VH: B1 VH with P29I, K30Q, F57N, T58S, A104G
VL: B1 VL with A51D, M54K, H80P, S91Y, D92Q, T97K
B5: Clone 33 Fab (affinity-matured humanized 29.39) (Fab, V domains shown)
VH: B1 VH with P29I, H35Q, R50K, F57N, E59M
VL: B1 VL with A28T, V55P, H80P, S91Y
B6: Clone 35 Fab (affinity-matured humanized 29.39) (Fab, V domains shown)
VH: B1 VH with P29I, K30N, F57Y
VL: B1 VL with N30A, H80P, S91F, D92Q
B7: Clone 5 Fab (affinity-matured humanized 29.39) (Fab, V domains shown)
VH: B1 VH with P29I, K30R, R50K, F57N, A104G
VL: B1 VL with L33H, A51V, H80P, S91Y, D92L
B8: Clone 18 Fab (affinity-matured humanized 29.39) (Fab, V domains shown)
VH: B1 VH with K23Q, P29I, E46G, R50K, F57M, M70V
VL: B1 VL with I29P, H80P, S91Y, D92E
B9: Clone 19 Fab (affinity-matured humanized 29.39) (Fab, V domains shown)
VH: B1 VH with P29M, R50K, F57A, A104G
VL: B1 VL with V55G, H80P
B10: Clone 20 Fab (affinity-matured humanized 29.39) (Fab, V domains shown)
VH: B1 VH with P29M, R50K, F57D
VL: B1 VL with M54A, H80P, S91Y, D92L
B11: Clone 2-9 Fab (affinity-matured humanized 29.39) (Fab, V domains shown)
VH: B1 VH with V20A, P29I, K30Q, F57N, T58S
VL: B1 VL with A28P, A51V, M54K, H80P, S91Y, D92L
B12: Clone 2-11 Fab (affinity-matured humanized 29.39) (Fab, V domains shown)
VH: B1 VH with P29I, R50K, F57G
VL: B1 VL with A28P, A51V, M54K, H80P, S91Y, D92V
B13: Anti-CD137 clone 2-9 IgG2 wt (antibody, V domains shown)
VH: B1 VH with V20A, P29I, K30Q, F57N, T58S
VL: B1 VL with A28P, A51V, M54K, H80P, S91Y, D92L

target: cynomolgus-CD137 ECD (cynomolgus monkey) (UniProt A9YYE7); test: ELISA of Fab in supernatants after phage panning

Row | Binder | binding
1 | B1 | binds
2 | B2 | binds
3 | B3 | binds
4 | B4 | binds
5 | B5 | binds
6 | B6 | binds
7 | B7 | binds
8 | B8 | binds
9 | B9 | binds
10 | B10 | binds
11 | B11 | binds
12 | B12 | binds

target: Cyno CD137-his (Sino Biological, 90847-K02H-100) (cynomolgus monkey) (UniProt A9YYE7); test: BLI (Octet)

Row | Binder | binding
13 | B13 | binds

target: Cyno CD137-his (Sino Biological, 90847-K02H-100) (cynomolgus monkey) (UniProt A9YYE7); test: biolayer interferometry (Octet), antibody captured on anti-human IgG Fc (AHC) sensor, cynomolgus CD137-his in solution

Row | Binder | binding
14 | B13 | binds
